# Assay results as given in PubChem BioAssay (NCATS).
# Chains of the proteins cited; added tags and fusions are not shown. Lines headed by an entry give the natural chain unless they say otherwise; changes in a name come on top.
# UniProt Q07343: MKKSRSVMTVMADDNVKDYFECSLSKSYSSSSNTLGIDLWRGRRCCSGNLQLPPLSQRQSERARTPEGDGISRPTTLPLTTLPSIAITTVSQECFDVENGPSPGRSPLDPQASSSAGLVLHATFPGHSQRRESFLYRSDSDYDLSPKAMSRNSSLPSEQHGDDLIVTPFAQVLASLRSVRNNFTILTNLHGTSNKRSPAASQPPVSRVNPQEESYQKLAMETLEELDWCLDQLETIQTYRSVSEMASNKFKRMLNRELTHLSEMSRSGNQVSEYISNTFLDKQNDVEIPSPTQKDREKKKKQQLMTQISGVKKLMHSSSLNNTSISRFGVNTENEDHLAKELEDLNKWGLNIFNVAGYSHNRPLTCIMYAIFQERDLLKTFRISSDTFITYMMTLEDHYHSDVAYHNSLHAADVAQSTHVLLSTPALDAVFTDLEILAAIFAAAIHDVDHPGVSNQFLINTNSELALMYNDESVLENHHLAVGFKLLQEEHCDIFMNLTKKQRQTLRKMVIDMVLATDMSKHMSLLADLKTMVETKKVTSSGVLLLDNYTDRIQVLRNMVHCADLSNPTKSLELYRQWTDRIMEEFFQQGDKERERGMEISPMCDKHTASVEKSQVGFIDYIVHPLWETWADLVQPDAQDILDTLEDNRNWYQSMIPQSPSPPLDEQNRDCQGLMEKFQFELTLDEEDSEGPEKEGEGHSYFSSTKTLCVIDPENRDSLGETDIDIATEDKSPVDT
# UniProt P08684, whole entry, looked up: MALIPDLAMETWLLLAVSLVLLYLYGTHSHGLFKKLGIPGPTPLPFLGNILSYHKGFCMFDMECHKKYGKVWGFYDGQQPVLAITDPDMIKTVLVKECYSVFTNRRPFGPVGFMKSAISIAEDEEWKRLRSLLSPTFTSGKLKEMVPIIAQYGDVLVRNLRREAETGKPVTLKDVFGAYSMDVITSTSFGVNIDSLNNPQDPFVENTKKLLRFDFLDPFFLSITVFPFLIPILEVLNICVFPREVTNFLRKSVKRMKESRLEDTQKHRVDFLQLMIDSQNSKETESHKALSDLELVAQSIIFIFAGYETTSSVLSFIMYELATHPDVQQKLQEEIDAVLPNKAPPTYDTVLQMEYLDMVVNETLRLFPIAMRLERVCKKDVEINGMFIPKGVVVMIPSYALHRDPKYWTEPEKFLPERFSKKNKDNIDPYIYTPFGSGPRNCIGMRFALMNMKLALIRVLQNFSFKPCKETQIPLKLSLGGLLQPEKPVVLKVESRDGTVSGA
# The inconclusive results got no clear call from the source; some entries with a clear call stand among them for comparison. For some assays here: Potencies of inconclusive entries are doubtful fits and often do not repeat. Calls of active or inactive are those of the source. Unless noted, calls come from the whole dose curve; as a rule, active = well fitted curve in the direction sought with a large enough effect; inconclusive = small, poorly fitted or top-dose-only effect, or another doubt; inactive = no such curve, though single readings can be large; an effect the other way counts as inactive or inconclusive.
# Tests used:
# [1] = Stat Signaling Pathway (AID 446; active = well fitted curve in either direction with a large enough effect, not every such curve was filed as active; inconclusive = small, poorly fitted or top-dose-only effect, or another doubt;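 note: ME-180 cervical cancer cells given 40 pM IL-6 alongside compound; SIE-controlled beta-lactamase reporter measured as 460/530 nm FRET emission ratio; % is set by controls: 0 for no effect and ±100 for the full control effect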); conditions: ME-180 SIE beta-lactamase reporter, IL-6 stimulated, 5 h; at 7.69 µM (top of the series) unless noted
# How it was run: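 Compound effects on IL-6-induced STAT reporter activity were measured in ME-180 cells. After overnight culture, cells were co-treated with 40 pM IL-6 for 5 hrs before beta-lactamase substrate loading at room temperature.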
# [2] = Cell Viability qHTS for small molecule stabilizers of the endoplasmic reticulum resident proteome (AID 1508629); conditions: cell viability counter-screen, 100 nM thapsigargin for final 4 h;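 note: compound exposure about 46 h in total before the viability read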; note: potency is the fitted concentration of half-maximal effect;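 for max response: human SH-SY5Y neuroblastoma cells carrying the GLuc-SERCaMP reporter; % is set by controls: 0 for no effect and ±100 for the full control effect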
# [3] = Primary qHTS for small molecule stabilizers of the endoplasmic reticulum resident proteome: Secreted ER Calcium Modulated Protein (SERCaMP) assay (AID 1508630); conditions: SH-SY5Y GLuc-SERCaMP (Gaussia luciferase released on ER calcium loss) secretion, thapsigargin, luminescence; activity change, negative = inhibition: at 38.4 µM (top of the series) unless noted; note: potency is the fitted concentration of half-maximal effect; for activity change, negative = inhibition: % is set by controls: 0 for no effect and ±100 for the full control effect
# How it was run: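 The SH-SY5Y reporter protocol was run at 3 concentrations up to 38.3 uM (primary) or 11 concentrations (follow-up): 16 h compound, 100 nM thapsigargin for 4 h, then extracellular luciferase luminescence.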
# [4] = target: Mitogen-activated protein kinase 10 (Mus musculus) (UniProt Q61831); experiment: JNK3 AlphaScreen Assay (AID 530; active = well fitted curve in either direction with a large enough effect, not every such curve was filed as active; inconclusive = small, poorly fitted or top-dose-only effect, or another doubt;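 note: kinase came from lysate of stimulated human HepG2 cells; potency is the fitted concentration of half-maximal effect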); conditions: JNK3 lysate, c-Jun phosphorylation; activity change, negative = inhibition: at 57.1 µM (top of the series)
# How it was run: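 HepG2 lysate (IL-1b/TNFa pre-activated) + biotin-GST-cJun 1-79 + anti-pSer73 cJun; cpd titration, 15 min RT; ATP 10 uM start; Tris pH 7.6, MgCl2, DTT, vanadate; beads in EDTA buffer; AlphaScreen.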
# [5] = target: 3',5'-cyclic-AMP phosphodiesterase 4B (Homo sapiens) (UniProt Q07343); experiment: qHTS Assay for Inhibitors of PDE-IV (AID 607; active = well fitted activation curve with a large enough effect in the main read-out, with a control signal flat, not every such curve was filed as active; inconclusive = small, poorly fitted or top-dose-only effect, or effect the other way, or a change in a side signal; note: potency is the fitted concentration of half-maximal effect); conditions: HEK293 ACTOne CNG channel cells, membrane potential fluorescence; activation (PDE inhibition): at 22.9 µM (top of the series)
# How it was run: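 ACTOne HEK293 cells carry a modified cAMP-gated CNG channel and express endogenous PDE4; plated 1000 cells/well, compounds up to 22.9 uM final. Membrane-potential dye fluorescence (ex 535/em 590) was read; parental cells received 10 uM forskolin + 100 uM RO 20-1724.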
# [6] = target: Cytochrome P450 3A4 (Homo sapiens) (UniProt P08684); experiment: qHTS Assay for Inhibitors and Substrates of Cytochrome P450 3A4 (AID 884); conditions: recombinant CYP3A4, Luciferin-PPXE luminescence; activity change, negative = inhibition: at 57.1 µM (top of the series); note: potency is the fitted concentration of half-maximal effect; nearly all actives have a fitted effect of over 50% in size
# How it was run: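 Luminescent readout of luciferin produced by CYP3A4 (20 nM) dealkylation of Luciferin-PPXE, 25 uM (its KM). NADPH-driven reaction ran 60 min at RT after 10 min compound preincubation; data scaled to 57 uM ketoconazole as 100% inhibition.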
# [7] = qHTS Assay for Identification of Small Molecule Agonists for Hypoxia Response Element Signaling Pathway (AID 914; active = well fitted activation curve with a large enough effect in the signal ratio, with a control signal flat, not every such curve was filed as active; inconclusive = small, poorly fitted or top-dose-only effect, or effect the other way, or a change in a side signal; the % refers to the signal ratio; note: potency is the fitted concentration of half-maximal effect; for activation: % of control where 0% means no effect); conditions: ME-180 (cervical carcinoma) HRE-bla reporter, beta-lactamase ratio, CoCl2, 17 h; activation: hits give high values
# How it was run: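 HRE-bla ME-180 assay for agonist-like enhancement of an EC50 CoCl2 stimulus: 17 h at 37 degrees Celsius, CCF4 for 2.5 h, ratiometric 460/530 nm signal converted to %Activity and fitted to AC50.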
# 3D7 = experiment: qHTS profiling for inhibitors of Plasmodium falciparum proliferation (AID 504749); note: nearly all actives have a fitted effect of over 60% in size; note: potency is the fitted concentration of half-maximal effect;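 for activity, negative = inhibition: 0% = DMSO vehicle and full inhibition = artemisinin control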; conditions: P. falciparum in erythrocytes, SYBR Green DNA, 72 h; series mostly up to 28.7 µM
# How it was run: (§1)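 SYBR Green fluorescence (ex 485 nm, em 535 nm) reports parasite DNA after 72 h compound exposure of infected red cells at 0.3% parasitemia, 2.5% hematocrit; signal normalized to 0.29 uM artemisinin and vehicle wells.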
# 7G8 = experiment: as above; conditions: P. falciparum in erythrocytes, SYBR Green DNA, 72 h; series mostly up to 28.7 µM
# How it was run: as §1
# CP201 = experiment: as above; conditions: P. falciparum in erythrocytes, SYBR Green DNA, 72 h; series mostly up to 28.7 µM
# How it was run: as §1
# CP215 = experiment: as above; conditions: P. falciparum in erythrocytes, SYBR Green DNA, 72 h; series mostly up to 28.7 µM
# How it was run: as §1
# CP237 = experiment: as above; conditions: P. falciparum in erythrocytes, SYBR Green DNA, 72 h; series mostly up to 28.7 µM
# How it was run: as §1
# CP262 = experiment: as above; conditions: P. falciparum in erythrocytes, SYBR Green DNA, 72 h; series mostly up to 28.7 µM
# How it was run: as §1
# CP268 = experiment: as above; conditions: P. falciparum in erythrocytes, SYBR Green DNA, 72 h; series mostly up to 28.7 µM
# How it was run: as §1
# CP291 = experiment: as above; conditions: P. falciparum in erythrocytes, SYBR Green DNA, 72 h; series mostly up to 28.7 µM
# How it was run: as §1
# CP305 = experiment: as above; conditions: P. falciparum in erythrocytes, SYBR Green DNA, 72 h; series mostly up to 28.7 µM
# How it was run: as §1
# CP335 = experiment: as above; conditions: P. falciparum in erythrocytes, SYBR Green DNA, 72 h; series mostly up to 28.7 µM
# How it was run: as §1
# DIV14 = experiment: as above; conditions: P. falciparum in erythrocytes, SYBR Green DNA, 72 h; series mostly up to 28.7 µM
# How it was run: as §1
# DIV17 = experiment: as above; conditions: P. falciparum in erythrocytes, SYBR Green DNA, 72 h; series mostly up to 28.7 µM
# How it was run: as §1
# GB4 = experiment: as above; conditions: P. falciparum in erythrocytes, SYBR Green DNA, 72 h; series mostly up to 28.7 µM
# How it was run: as §1
# P93_24 = experiment: as above; conditions: P. falciparum in erythrocytes, SYBR Green DNA, 72 h; series mostly up to 28.7 µM
# How it was run: as §1
# P94_40 = experiment: as above; conditions: P. falciparum in erythrocytes, SYBR Green DNA, 72 h; series mostly up to 28.7 µM
# How it was run: as §1
# PC26 = experiment: as above; conditions: P. falciparum in erythrocytes, SYBR Green DNA, 72 h; series mostly up to 28.7 µM
# How it was run: as §1
# PC49 = experiment: as above; conditions: P. falciparum in erythrocytes, SYBR Green DNA, 72 h; activity, negative = inhibition: at 28.7 µM (top of the series)
# How it was run: as §1
# TAB165 = experiment: as above; conditions: P. falciparum in erythrocytes, SYBR Green DNA, 72 h; series mostly up to 28.7 µM
# How it was run: as §1
smiles,measurement,setting,value
Cc1nc2cnc(N3CCN(C)CC3)nc2n(Cc2cccs2)c1=O,"activity, negative = inhibition",[1],inactive: -2.61%
same,max response,[2],inactive: -5.25%
same,Potency,[3],"inconclusive: 10 µM [inhibitor, partial curve, poor fit]"
CS(=O)(=O)N1CCC[C@@]2(CCN(Cc3nccs3)C2)C1,Potency,[3],inactive
COc1ccc(/C=C2\NC(=O)[C@@H]3Cc4ccccc4CN3C2=O)cc1,Potency,[3],inactive
COc1ccc2c(c1)CCC1[C@@H]2CCC2(C)[C@@H](NCCCCCCN3C(=O)C=CC3=O)CC[C@@H]12 (stereo partly drawn),Potency,[3],inactive
COc1ccc(CC(N)C(=O)NC2C(O)[C@H](n3cnc4c(N(C)C)ncnc43)O[C@@H]2CO)cc1 (stereo partly drawn),Potency,[3],inactive
CC1(C)OC(=O)C=C[C@@]2(C)C1C[C@@H](O)[C@]1(C)C2CC[C@@]2(C)C(c3ccoc3)OC(=O)[C@H]3O[C@]321 (stereo partly drawn),Potency,[3],"inconclusive: 25.1 µM [inhibitor, single point]"
N#CCCn1c(=O)c(CCc2ccccc2)nc2cnc(OCc3ccccc3)nc21,Potency,[4],"inconclusive: 20 µM [activator, partial curve]"
same,Potency,[5],"inconclusive: 5.01 µM [activator, partial curve]"
same,Potency,[6],"inconclusive: 199 nM [inhibitor, full curve]"
same,Potency,[2],"inconclusive: 0.141 µM [rising, full curve]"
same,Potency,[3],"inconclusive: 31.6 µM [inhibitor, partial curve, poor fit]"
CC(C)NC(=O)N1CCCC2(CCN(S(=O)(=O)c3ccccc3)CC2)C1,Potency,[3],inactive
CNCCCCc1cnc(C)c2[nH]c3ccccc3c12,Potency,[3],"inconclusive: 31.6 µM [inhibitor, partial curve, poor fit]"
O=C(O)C(Oc1ccc2ccc(=O)oc2c1)c1ccccc1 (stereo not drawn),Potency,[3],"inconclusive: 2 µM [inhibitor, full curve, poor fit]"
CN1CCN(c2ncc3nc(CCc4ccccc4)c(=O)n(Cc4ccc(F)cc4)c3n2)CC1,Potency,[5],"inconclusive: 15.8 µM [activator, single point]"
same,Potency,[6],active: 5010 nM
same,activation,[7],inactive: -6.17%
same,Potency,[2],"inconclusive: 11.2 µM [cytotoxic, partial curve]"
same,Potency,[3],"inconclusive: 10 µM [inhibitor, partial curve, poor fit]"
CN(Cc1ccccc1)C(=O)[C@H](Cc1ccc2ccccc2c1)NC(=O)[C@@H]1CCCN1C(=O)Nc1ccccc1[N+](=O)[O-],Potency,[3],"inconclusive: 6.31 µM [inhibitor, partial curve, poor fit]"
O=C(O)c1ccc(NC2OC[C@@H](O)[C@H](O)[C@H]2O)cc1 (stereo partly drawn),Potency,[3],inactive
S=C(NCCCc1cnc[nH]1)NCCCN(Cc1ccc(Cl)c(Cl)c1)c1ccc(Br)cn1,Potency,[3],"inconclusive: 28.2 µM [inhibitor, single point]"
COc1ccccc1CN1CC[C@@]2(CCCN(S(C)(=O)=O)C2)C1,Potency,[3],inactive
O=C(Nc1cccc(F)c1)N1CC[C@@]2(CCCN(C(=O)c3csnn3)C2)C1,Potency,[3],inactive
O=C1CN(/N=C/c2ccc(-c3ccc([N+](=O)[O-])cc3)o2)C(=O)N1,max response,[2],inactive: 25.5%
same,Potency,[3],"inconclusive: 3.16 µM [inhibitor, full curve, poor fit]"
same,Potency,3D7,"inconclusive: 12.6 µM [inhibitor, single point]"
same,Potency,7G8,"inconclusive: 12.6 µM [inhibitor, partial curve, poor fit]"
same,Potency,CP201,inconclusive: 0.5 nM [inhibitor]
same,Potency,CP215,"inconclusive: 4.26 µM [inhibitor, partial curve, poor fit]"
same,Potency,CP237,"inconclusive: 10 µM [inhibitor, partial curve]"
same,Potency,CP262,"inconclusive: 19 µM [inhibitor, partial curve, poor fit]"
same,Potency,CP268,inactive
same,Potency,CP291,inactive
same,Potency,CP305,inactive
same,Potency,CP335,inactive
same,Potency,DIV14,"inconclusive: 4.26 µM [inhibitor, partial curve, poor fit]"
same,Potency,DIV17,"inconclusive: 8.49 µM [inhibitor, partial curve]"
same,Potency,GB4,"inconclusive: 12 µM [inhibitor, partial curve, poor fit]"
same,Potency,P93_24,"inconclusive: 11.2 µM [inhibitor, single point]"
same,Potency,P94_40,inactive
same,Potency,PC26,"inconclusive: 8.49 µM [inhibitor, partial curve, poor fit]"
same,Potency,PC49,"inconclusive: 7.94 µM [inhibitor, single point]"
same,Potency,TAB165,inactive
O=C(NCCCN1CCCCCC1)C(c1ccccc1)C1CCCCC1 (stereo not drawn),Potency,[3],"inconclusive: 25.1 µM [inhibitor, single point]"
CCCCCCCCCCCCCCCCOCC(CO)OC(C)=O (stereo not drawn),"activity change, negative = inhibition",[3],inconclusive: -30.2% [inhibitor] [at 3.88 µM]
OCCOCCN1CCN(Cc2cccc(Oc3ccccc3)c2)CC1,Potency,[3],inactive
Cn1c(=O)c(-c2ccc(Cl)cc2)nc2cnc(OCc3ccccc3)nc21,Potency,[3],inactive
COc1ccc(-n2c(=O)c(-c3cccc(C#N)c3)nc3cnc(N4CCNCC4)nc32)cc1,Potency,[7],"inconclusive: 3.98 µM [activator, single point]"
same,Potency,[2],"inconclusive: 14.1 µM [cytotoxic, partial curve]"
same,Potency,[3],"inconclusive: 10 µM [inhibitor, partial curve, poor fit]"

# Looked up one by one from above:
smiles,measurement,setting,value
CCCCCCCCCCCCCCCCOCC(CO)OC(C)=O (stereo not drawn),"activity change, negative = inhibition",[3],inconclusive: -30.2% [inhibitor] [at 3.88 µM]
CN1CCN(c2ncc3nc(CCc4ccccc4)c(=O)n(Cc4ccc(F)cc4)c3n2)CC1,Potency,[3],"inconclusive: 10 µM [inhibitor, partial curve, poor fit]"
COc1ccc(CC(N)C(=O)NC2C(O)[C@H](n3cnc4c(N(C)C)ncnc43)O[C@@H]2CO)cc1 (stereo partly drawn),Potency,[3],inactive
O=C1CN(/N=C/c2ccc(-c3ccc([N+](=O)[O-])cc3)o2)C(=O)N1,Potency,3D7,"inconclusive: 12.6 µM [inhibitor, single point]"
